Three molecules from article PMC6548132, “Engineered SUMO/protease system identifies Pdr6 as a bidirectional nuclear transport receptor” (The Journal of Cell Biology, 2019) can be followed below.

The assay addresses T1, ED-SUMO^Eu1-His12–tagged Pdr6 (S. cerevisiae) (UniProt P32767).
T1 sequence: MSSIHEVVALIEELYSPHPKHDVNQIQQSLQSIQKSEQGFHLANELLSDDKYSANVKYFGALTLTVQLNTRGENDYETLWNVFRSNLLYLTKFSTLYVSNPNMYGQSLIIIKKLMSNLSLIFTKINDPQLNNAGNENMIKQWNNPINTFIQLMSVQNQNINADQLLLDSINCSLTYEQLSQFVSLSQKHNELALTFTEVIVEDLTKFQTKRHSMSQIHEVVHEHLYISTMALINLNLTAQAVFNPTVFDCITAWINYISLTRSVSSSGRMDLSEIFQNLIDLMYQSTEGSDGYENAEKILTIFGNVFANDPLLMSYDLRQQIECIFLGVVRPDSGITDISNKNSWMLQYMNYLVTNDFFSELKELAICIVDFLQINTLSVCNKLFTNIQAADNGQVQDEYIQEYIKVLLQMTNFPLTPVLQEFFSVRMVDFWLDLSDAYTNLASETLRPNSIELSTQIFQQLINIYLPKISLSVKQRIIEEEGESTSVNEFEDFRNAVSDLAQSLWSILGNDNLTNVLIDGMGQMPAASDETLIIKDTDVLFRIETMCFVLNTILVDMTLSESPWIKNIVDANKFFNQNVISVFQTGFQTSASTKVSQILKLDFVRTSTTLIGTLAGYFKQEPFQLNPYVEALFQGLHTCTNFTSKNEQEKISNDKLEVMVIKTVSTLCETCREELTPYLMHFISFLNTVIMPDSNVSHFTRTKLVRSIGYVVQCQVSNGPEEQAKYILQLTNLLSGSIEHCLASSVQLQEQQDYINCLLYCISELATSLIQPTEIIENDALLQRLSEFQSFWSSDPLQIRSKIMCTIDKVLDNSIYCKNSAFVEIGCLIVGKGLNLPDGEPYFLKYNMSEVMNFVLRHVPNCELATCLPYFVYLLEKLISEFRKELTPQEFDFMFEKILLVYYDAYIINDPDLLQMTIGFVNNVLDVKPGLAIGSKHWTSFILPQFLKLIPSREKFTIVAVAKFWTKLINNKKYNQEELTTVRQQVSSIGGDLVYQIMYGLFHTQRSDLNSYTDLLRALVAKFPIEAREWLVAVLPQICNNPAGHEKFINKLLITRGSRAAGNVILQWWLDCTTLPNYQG
Kind of assay: affinity purification with mass spectrometry; 0.5 µM ED-SUMO^Eu1-His12-Pdr6 as bait in yeast cell extract (GK75 buffer) without RanGTP; anti-ZZ/ED affibody beads 1 h at 4°C, elution by SENP^EuB cleavage, recapture on Ni2+ chelate beads, cargo release with 3 M guanidinium-HCl; SDS-PAGE/Coomassie, excised bands identified by LC-MS; only the target purified.

No constants are given. Whether binding was seen depends on the method and setting. Binding seen in cells or lysates may run through a third protein. A yes stands for co-enrichment or nearness to the bait. Other partners may have been found. Sequences can lack the tags named with a protein.

B1: H14-ZZ-NEDD8–tagged Ubc9 (enzyme, yeast (S. cerevisiae), UniProt P50623 1-157, looked up)
chain: MSSLCLQRLQEERKKWRKDHPFGFYAKPVKKADGSMDLQKWEAGIPGKEGTNWAGGVYPITVEYPNEYPSKPPKVKFPAGFYHPNVYPSGTICLSILNEDQDWRPAITLKQIVLGVQDLLDSPNPNSPAQEPAWRSFSRNKAEYDKKVLLQAKQYSK
notes: Ubc9, SUMO-conjugating E2 enzyme of yeast; Tag is cut by NEDP1 only at elution; also called immobilized Ubc9; source: E. coli NEB express, purified (Ni2+ chelate beads)
On to B1, for which the binding entry is listed as “binds”.

B2: Toa1 (endogenous, yeast extract) (protein, UniProt P32773 1-286)
chain: MSNAEASRVYEIIVESVVNEVREDFENAGIDEQTLQDLKNIWQKKLTETKVTTFSWDNQFNEGNINGVQNDLNFNLATPGVNSSEFNIKEENTGNEGLILPNINSNNNIPHSGETNINTNTVEATNNSGATLNTNTSGNTNADVTSQPKIEVKPEIELTINNANITTVENIDDESEKKDDEEKEEDVEKTRKEKEQIEQVKLQAKKEKRSALLDTDEVGSELDDSDDDYLISEGEEDGPDENLMLCLYDKVTRTKARWKCSLKDGVVTINRNDYTFQKAQVEAEWV
For B2, the binding result is “binds”.

B3: Wtm1 (endogenous, yeast extract) (protein, UniProt Q12363 1-437)
chain: MPKKVWKSSTPSTYEHISSLRPKFVSRVDNVLHQRKSLTFSNVVVPDKKNNTLTSSVIYSQGSDIYEIDFAVPLQEAASEPVKDYGDAFEGIENTSLSPKFVYQGETVSKMAYLDKTGETTLLSMSKNGSLAWFKEGIKVPIHIVQELMGPATSYASIHSLTRPGDLPEKDFSLAISDFGISNDTETIVKSQSNGDEEDSILKIIDNAGKPGEILRTVHVPGTTVTHTVRFFDNHIFASCSDDNILRFWDTRTSDKPIWVLGEPKNGKLTSFDCSQVSNNLFVTGFSTGIIKLWDARAAEAATTDLTYRQNGEDPIQNEIANFYHAGGDSVVDVQFSATSSSEFFTVGGTGNIYHWNTDYSLSKYNPDDTIAPPQDATEESQTKSLRFLHKGGSRRSPKQIGRRNTAAWHPVIENLVGTVDDDSLVSIYKPYTEESE
As to B3, the binding result was “binds”.
